Ki data for 2 compounds are collected here from patent US20060111357A1, “Quinoline compounds for use in mch receptor related disorders” (priority 2003, published 2006).

By UniProt entry, the sequences of proteins in these tests, tags left out. Where a name states a change or a piece, a line headed by the entry shows the natural chain unless it says otherwise.
UniProt Q12809: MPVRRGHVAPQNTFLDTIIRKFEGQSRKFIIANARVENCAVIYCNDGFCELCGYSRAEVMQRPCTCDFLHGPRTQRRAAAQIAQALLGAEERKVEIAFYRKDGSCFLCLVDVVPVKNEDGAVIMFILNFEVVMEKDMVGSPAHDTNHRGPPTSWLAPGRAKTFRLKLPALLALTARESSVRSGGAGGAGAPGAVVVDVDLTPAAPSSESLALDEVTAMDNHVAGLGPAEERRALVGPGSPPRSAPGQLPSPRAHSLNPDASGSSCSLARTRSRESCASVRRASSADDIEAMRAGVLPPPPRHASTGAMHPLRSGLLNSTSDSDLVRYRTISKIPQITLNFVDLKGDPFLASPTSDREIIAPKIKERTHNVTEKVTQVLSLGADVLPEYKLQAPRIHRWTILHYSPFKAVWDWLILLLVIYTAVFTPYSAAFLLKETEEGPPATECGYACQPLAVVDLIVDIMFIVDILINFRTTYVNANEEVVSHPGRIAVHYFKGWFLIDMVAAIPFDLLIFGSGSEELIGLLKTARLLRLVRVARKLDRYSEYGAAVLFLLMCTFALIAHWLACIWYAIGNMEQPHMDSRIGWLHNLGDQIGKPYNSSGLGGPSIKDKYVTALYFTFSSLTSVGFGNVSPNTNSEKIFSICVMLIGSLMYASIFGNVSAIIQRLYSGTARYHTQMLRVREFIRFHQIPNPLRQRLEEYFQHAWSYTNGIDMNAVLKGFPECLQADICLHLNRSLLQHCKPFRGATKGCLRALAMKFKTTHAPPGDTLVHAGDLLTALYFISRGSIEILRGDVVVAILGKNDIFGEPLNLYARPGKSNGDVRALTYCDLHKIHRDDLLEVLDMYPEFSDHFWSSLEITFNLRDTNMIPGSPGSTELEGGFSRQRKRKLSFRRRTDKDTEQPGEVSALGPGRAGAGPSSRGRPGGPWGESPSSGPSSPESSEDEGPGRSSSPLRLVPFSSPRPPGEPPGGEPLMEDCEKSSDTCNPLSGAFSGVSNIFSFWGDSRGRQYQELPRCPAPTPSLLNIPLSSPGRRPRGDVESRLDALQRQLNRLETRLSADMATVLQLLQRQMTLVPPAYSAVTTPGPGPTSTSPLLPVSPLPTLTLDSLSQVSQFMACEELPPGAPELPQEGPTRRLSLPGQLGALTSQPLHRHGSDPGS

This experiment deals with HERG channels (Homo sapiens, UniProt Q12809). Description: HERG selectivity method, whole-cell patch-clamp recordings. On the technique in general: Patch clamp records ionic current or voltage across a cell membrane.

For orientation: Ki means a dissociation constant, usually derived from enzyme kinetics or from competition with a known ligand. Read a low Ki as higher affinity. For the compound `C(=C\c1ccccc1)/CN1CCN(C(c2ccccc2)c2ccccc2)CC1` [Cinnarizine], the affinity corresponds to a Ki of 0.36 µM. That is a sub-micromolar value. The value for `CN(C)CCC=C1c2ccccc2COc2ccccc21` [Doxepine] was 24 µM.
